Values from PubChem BioAssay AID504744 (Drosophila RNAi Screening Center, 2011)

Assay: 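Identify dsRNAs that increase or decrease phospho-dAkt after insulin treatment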 (primary screen)
Cells: Drosophila Kc167 cells
Reagents: long dsRNA against Drosophila genes, 250 ng dsRNA per well of a 384-well plate
Timing: 3 days of knock-down, then overnight serum-free starvation before stimulation
Conditions: bovine insulin at 387 nM for 10 minutes after 12 h without serum
Measured: 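Per-well phospho-dAkt level from an in-cell fluorescent antibody stain, divided by a DNA-dye signal; log2 residuals turned into z-scores that take cell number into account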
Hit rule: 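Hit in the insulin screen when the two-replicate mean z-score is more extreme than plus or minus 2.5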
The screen tested about 23,000 reagents; shown is a random part of those with a known target gene and a result. Over the whole deposit, 98 (0.43%) got an active call. 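Only hit calls are given; the phospho-dAkt signals, z-scores and hit direction were not deposited.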 The numbers tell different reagents against one gene apart. Names joined by + are all predicted targets of the reagent. Reagent sequences are not shown.

| gene knocked down | dsRNA no. | Outcome |
| --- | --- | --- |
| CG15543 | 1 | inactive |
| GstO3 (Glutathione S transferase O3) | 1 | inactive |
| CG8892 | 1 | inactive |
| mahj (mahjong) | 1 | inactive |
| CG6843 | 1 | inactive |
| CG33337 | 1 | inactive |
| mago (mago nashi) | 1 | inactive |
| CG3841 | 1 | inactive |
| CG15343 | 1 | inactive |
| chrb (charybde) | 1 | inactive |
| Tmem214 (Transmembrane protein 214) | 1 | inactive |
| Tmem214 (Transmembrane protein 214) | 2 | inactive |
| c12.2 | 1 | inactive |
| Fili (Fish-lips) | 1 | inactive |
| Fili (Fish-lips) | 2 | inactive |
| Fili (Fish-lips) | 3 | inactive |
| ng1 (new glue 1) | 1 | inactive |
| Stim (Stromal interaction molecule) | 1 | inactive |
| antr (antares) | 1 | inactive |
| CG16879 (retired record) | 1 | inactive |
| CG16879 (retired record) | 2 | inactive |

A few values from the entries so far.
For “Outcome”, CG6843 has inactive
Under “Outcome”, CG15343 has inactive
Result of mago (mago nashi) under “Outcome”: inactive
mahj (mahjong), Outcome: inactive
CG8892, Outcome: inactive
For “Outcome”, CG15543 has inactive

The results go on:
| gene knocked down | dsRNA no. | Outcome |
| --- | --- | --- |
| CG9173 | 1 | inactive |
| Rgk3 (Rad, Gem/Kir family member 3) | 1 | inactive |
| Rgk3 (Rad, Gem/Kir family member 3) | 2 | inactive |
| Rgk3 (Rad, Gem/Kir family member 3) | 3 | inactive |
| Rgk3 (Rad, Gem/Kir family member 3) | 4 | inactive |
| CG15712 | 1 | inactive |
| CG13074 | 1 | inactive |
| Eglp2 (Entomoglyceroporin 2) | 1 | inactive |
| CG4830 | 1 | inactive |
| CG40439 | 1 | inactive |
| zip (zipper) | 1 | inactive |
| zip (zipper) | 2 | inactive |
| CG12502 | 1 | inactive |
| Porin2 | 1 | inactive |
| CG31525 | 1 | inactive |
| Acp63F (Accessory gland protein 63F) | 1 | inactive |
| Agpat2 (1-Acylglycerol-3-phosphate O-acyltransferase 2) | 1 | inactive |
| CG31388 | 1 | inactive |
| CG31776 | 1 | inactive |
| Exo70 (Exocyst 70) | 1 | inactive |
| CG2938 | 1 | inactive |
| CG17826 | 1 | inactive |
| CG12177 | 1 | inactive |
| CG12177 | 2 | inactive |
| Pex13 (Peroxin 13) | 1 | inactive |
| CG6290 | 1 | inactive |
| spo (spook) | 1 | inactive |
| CG8046 | 1 | inactive |
| SMC2 (Structural maintenance of chromosomes 2) | 1 | inactive |
| BtbVII (BTB-protein-VII) | 1 | inactive |
| BtbVII (BTB-protein-VII) | 2 | inactive |
| CG34178 + CG34177 | 1 | inactive |
| CG32091 | 1 | inactive |
| CG32091 | 2 | inactive |
| CG18747 | 1 | inactive |
| Ugt317A1 (UDP-glycosyltransferase family 317 member A1) | 1 | inactive |
| MBD-R2 | 1 | inactive |
| CG1902 | 1 | inactive |
| SmF (Small ribonucleoprotein particle protein SmF) | 1 | inactive |
| ATP6 (retired record) | 1 | inactive |
| CG43317 | 1 | inactive |
| Iyd (Iodotyrosine deiodinase) | 1 | inactive |
| Iyd (Iodotyrosine deiodinase) | 2 | inactive |
